Tests used:
BDL cirrhotic rats = assay: Bile duct ligated rat model, IP ornithine, phenylbutyrate, OP; assay type: in vivo, Sprague-Dawley rats
Experimental: Male Sprague-Dawley rats (200-250 g) were used for this procedure. Following anaesthetisation, a mid-line laparotamy was performed, the bile duct was exposed, triply ligated with 4.0 silk suture, and severed between the second and third ligature. The wound was closed in layers with absorbable suture, and the animal allowed to recover in a quiet room before being returned to the animal storage facility. Animals were kept at a constant temperature (20° C.) in a 12 hour light/dark cycle with access to water and standard rodent chow ad libitum. […] At six weeks, under anaesthesia a right carotid arterial catheter was inserted and used to collect repeated blood samples. Following this procedure a baseline sample was collected prior to administration of the study formulations by IP injection. […] Blood samples were collected into pre-cooled […] tubes and stored on ice prior to processing. Plasma was collected following centrifugation (3,000 rpm, 10 mins) and stored at -80° C. prior to analyses. Ammonia, glucose, lactate and urea were measured using a COBRAS Mira S according to manufacturers instructions. Amino acids were quantified by HPLC with fluorescence detection.

[1] = test system: devascularized pig model of acute liver failure; assay: Devascularized pig model of acute liver failure; assay type: in vivo, pigs; conditions: frontal cortex at end of experiment, % control (FIG. 30)

## NCCC[C@H](N)C(=O)O [ornithine]
BDL cirrhotic rats; 1 hour following the IP injection (FIG. 20)
  plasma ornithine concentration: markedly increased
BDL cirrhotic rats; 3 hours (FIG. 20)
  plasma ornithine concentration: subsequently reduced
BDL cirrhotic rats; over three hours after IP injection, ornithine 0.22 g/Kg, phenylbutyrate 0.3 g/Kg (FIG. 19)
  arterial plasma ammonia levels: slight decrease
[1]; listed as omithine alone
  brain water: increase
[1]; listed as ornithine alone
  brain water: considerable increase
